Data taken from the supplement of paper PMC3741180, “A Novel High Throughput Biochemical Assay to Evaluate the HuR Protein-RNA Complex Formation” (PLoS ONE, 2013).
The list shows a part of the results. This data set is noisy: repeats of one test often differ as much as different tests do. Bridge positions count the residues as written; N and C are the ends. Square brackets hold non-standard residues; d marks the D form. Peptide text beside a SMILES is read from it. * marks the point of attachment. Ileψ(thiazoline)Cys = CC[C@H](C)[C@H](N)C1=N[C@H](C(=O)*)CS1; dOrn = NCCC[C@@H](N)C(=O)O

Protein sequences, listed by entry. Tags and fused reporters are not part of them.
UniProt Q15717, whole entry: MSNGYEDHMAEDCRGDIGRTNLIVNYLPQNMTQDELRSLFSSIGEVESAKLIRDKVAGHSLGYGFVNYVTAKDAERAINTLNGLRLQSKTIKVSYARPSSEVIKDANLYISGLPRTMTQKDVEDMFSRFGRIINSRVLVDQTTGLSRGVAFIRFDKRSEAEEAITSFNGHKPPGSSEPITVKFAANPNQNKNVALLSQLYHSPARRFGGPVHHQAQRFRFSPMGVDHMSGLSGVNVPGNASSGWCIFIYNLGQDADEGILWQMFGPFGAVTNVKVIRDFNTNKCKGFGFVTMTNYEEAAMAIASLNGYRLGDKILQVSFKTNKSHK

What follows are molecules tested against HuR (ELAVL1) - TNFalpha ARE RNA complex (UniProt Q15717) (assay: AlphaScreen HuR-RNA complex signal Z-score relative to positive (Bi-TNF, DMSO) controls (Z-score (SD units of positive control)); higher = more complex signal). Conditions: screen stage: primary screen; compound concentration: 25 nM.

Row | Compound | AlphaScreen HuR-RNA complex signal Z-score
1 | Nc1nc2[nH]cnc2c(=S)[nH]1 | 21.5
2 | C/C1=C2/[N-][C@H]([C@H](CC(N)=O)[C@@]2(C)CCC(=O)NC[C@@H](C)OP(=O)([O-])O[C@H]2[C@@H](O)[C@@H](n3cnc4cc(C)c(C)cc43)O[C@@H]2CO)[C@]2(C)N=C(/C(C)=C3N=C(/C=C4N=C1[C@@H](CCC(N)=O)C\4(C)C)[C@@H](CCC(N)=O)[C@]\3(C)CC(N)=O)[C@@H](CCC(N)=O)[C@]2(C)CC(N)=O.[CH2-][C@H]1O[C@H](n2cnc3c(N)ncnc32)[C@@H](O)[C@H]1O.[Co+3] | -0.17
3 | CN(C)C(=O)C(CCN1CCC(O)(c2ccc(Cl)cc2)CC1)(c1ccccc1)c1ccccc1 | 2.31
4 | CC(C(=O)O)c1ccc2c(c1)[nH]c1ccc(Cl)cc12 (centres undefined) | 1.72
5 | O=C(O)C1CCCNC1 (centres undefined) | 0.525
6 | O=C1c2c(O)cccc2C([C@@H]2O[C@H](CO)[C@@H](O)[C@H](O)[C@H]2O)c2cc(CO)cc(O)c21 (some centres undefined) | 1.46
7 | C[C@H]1O[C@@H](O[C@H]2[C@@H](O)C[C@H](O[C@H]3[C@@H](O)C[C@H](O[C@H]4CC[C@@]5(C)[C@H](CC[C@@H]6[C@@H]5C[C@@H](O)[C@]5(C)[C@@H](C7=CC(=O)OC7)CC[C@]65O)C4)O[C@@H]3C)O[C@@H]2C)C[C@H](O)[C@@H]1O | 0.165
8 | O=c1ccc2cc(O)c(O)cc2o1 | 1.86
9 | C[C@H](CCC(=O)O)[C@H]1CC[C@H]2[C@@H]3[C@H](O)C[C@@H]4C[C@H](O)CC[C@]4(C)[C@H]3C[C@H](O)[C@]12C | 1.29
10 | CC(=O)OC1CCC2(C)C(=CCC3C2CCC2(C)C(C(C)CCCC(C)C)CCC32)C1 (centres undefined) | 1.87
11 | O=C(OCC(O)CO)c1ccccc1Nc1ccnc2cc(Cl)ccc12 (centres undefined) | 1.91
12 | CC(C(=O)O)c1ccc(-c2ccccc2)c(F)c1 (centres undefined) | -6.16
13 | Cc1cc(O)c2c(c1)C(=O)c1cccc(O)c1C2=O | 1.6
14 | OC[C@H]1O[C@H](O[C@]2(CCl)O[C@H](CCl)[C@@H](O)[C@@H]2O)[C@H](O)[C@@H](O)[C@H]1Cl | 2.21
15 | O=C(O)[C@@H](O)[C@H](O)[C@H](O)[C@@H](O)C(=O)O | 0.775
16 | Oc1cc(O)c2c(c1)O[C@H](c1ccc(O)c(O)c1)[C@H](O)C2 | 2.02
17 | Nc1nc2ccc(OC(F)(F)F)cc2s1 | -0.149
18 | COc1ccc2c(c1)c(CC(=O)O)c(C)n2C(=O)c1ccc(Cl)cc1 | -2.07
19 | COc1ccc(-c2cc(=O)c3c(O)c(OC)c(O[C@@H]4O[C@H](CO[C@@H]5O[C@@H](C)[C@H](O)[C@@H](O)[C@H]5O)[C@@H](O)[C@H](O)[C@H]4O)cc3o2)cc1 | 1.32
20 | Cn1c(=O)[nH]c(=O)c2[nH]cnc21 | 1.54
21 | O=C(C1CCCCC1)N1CC(=O)N2CCc3ccccc3C2C1 (centres undefined) | 5.07
22 | CC(=O)NCCCS(=O)(=O)O | -0.135

Row | Compound | AlphaScreen HuR-RNA complex signal Z-score
23 | COc1ccc2c(c1OC)C(=O)O[C@@H]2[C@H]1c2c(cc3c(c2OC)OCO3)CCN1C | 2.56
24 | O=C1C=C(O)C(=O)c2ccccc21 | 0.456
25 | C=C1c2c(Cl)ccc(O)c2C(=O)C2=C(O)[C@]3(O)C(=O)C(C(N)=O)=C(O)[C@@H](N(C)C)[C@@H]3[C@@H](O)[C@H]12.O=C(O)c1cc(S(=O)(=O)O)ccc1O | 0.76
26 | C=CC(C)(O)CCC1C(=C)CC(OC(C)=O)C2C(C)(C)CCCC12C (centres undefined) | 0.804
27 | CN1CCN(CCCN2c3ccccc3Sc3ccc(C(F)(F)F)cc32)CC1 | -1.61
28 | COc1ccc(OC)c(C(O)CNC(=O)CN)c1 (centres undefined) | -0.0372
29 | COC(=O)C[C@H]1C(C)(C)C2(O)OC34CC2C(=O)[C@]1(C)C3CC[C@]1(C)C4=CC(=O)O[C@H]1c1ccoc1 (stereo partly drawn) [8beta-HYDROXYCARAPIN, 3,8-HEMIACETAL] | 1.29
30 | CNC[C@H](O)c1ccc(O)c(O)c1 | 5.52
31 | Cn1c(=O)c2nc(C3CCCC3)[nH]c2n(C)c1=O | 1.72
32 | Cc1c[nH]c2ccccc12 | 1.81
33 | O=c1cc(-c2ccc(O)cc2)oc2ccc(O)cc12 | -0.0291
34 | CC(=O)NS(=O)(=O)c1ccc(NC(=O)c2ccccc2C(=O)O)cc1 | 0.505
35 | CC[C@H](C)[C@H](N)C1=N[C@H](C(=O)N[C@@H](CC(C)C)C(=O)N[C@H](CCC(=O)O)C(=O)N[C@H](C(=O)N[C@H]2CCCCNC(=O)[C@H](CC(N)=O)NC(=O)[C@@H](CC(=O)O)NC(=O)[C@H](Cc3cnc[nH]3)NC(=O)[C@@H](Cc3ccccc3)NC(=O)[C@H]([C@@H](C)CC)NC(=O)[C@@H](CCCN)NC2=O)[C@@H](C)CC)CS1 ({Ileψ(thiazoline)Cys}-L[dE]IK[dOrn]I[dF]H[dD]N; lactam 4-C) | 0.291
36 | O=C(CCc1ccc(O)cc1)c1c(O)cc(O)cc1O | 1.27
37 | COc1ccc(-c2cc(=O)c3cc(OC)ccc3o2)cc1 | 1.06
38 | CN(C)CCOC(C)(c1ccccc1)c1ccccn1 (centres undefined) | -2.02
39 | C=CC(C1=CC(=O)C(OC)=CC1=O)c1ccc(OC)cc1 (centres undefined) | 2.13
40 | C[C@H]1[C@H](C)CC[C@]2(CO)CC[C@]3(C)C(=CC[C@@H]4[C@@]5(C)CC[C@H](O)C(C)(C)[C@@H]5CC[C@]43C)[C@H]12 | 2.25
41 | Oc1cc(O)c2c(c1)O[C@H](c1cc(O)c(O)c(O)c1)[C@H](O)C2 | 1.94
42 | C(=C\c1ccccc1)/CN1CCN(C(c2ccccc2)c2ccccc2)CC1 | 0.733
43 | CC(=O)OCC(=O)[C@@]1(O)CCC2C3CCC4=CC(=O)C=C[C@]4(C)[C@@]3(F)[C@@H](O)C[C@@]21C (some centres undefined) | 1.42
44 | C[C@@H]1C[C@H]2[C@@H]3CCC4=CC(=O)C=C[C@]4(C)[C@@]3(F)[C@@H](O)C[C@]2(C)[C@@]1(O)C(=O)COP(=O)(O)O | -3.25

Of the compounds above, these have a CF3 group:
Row | Compound | AlphaScreen HuR-RNA complex signal Z-score
17 | Nc1nc2ccc(OC(F)(F)F)cc2s1 | -0.149
27 | CN1CCN(CCCN2c3ccccc3Sc3ccc(C(F)(F)F)cc32)CC1 | -1.61
